Results are given in words; binding and its absence hold for the method and conditions named. Binding calls can cover weak binding; strength is not graded here.
Biological target: CD64 (Fc gamma receptor I) (human, UniProt P12314 16-374)
Assay: flow cytometry, 1 µg protein on 4*10^5 CD64+ HL60 cells, anti-His Alexa 488 detection

Protein sequences, listed by entry. Tags and fused reporters are not part of them. Lines headed by an entry give the natural chain unless they say otherwise; changes in a name come on top.
UniProt P12314: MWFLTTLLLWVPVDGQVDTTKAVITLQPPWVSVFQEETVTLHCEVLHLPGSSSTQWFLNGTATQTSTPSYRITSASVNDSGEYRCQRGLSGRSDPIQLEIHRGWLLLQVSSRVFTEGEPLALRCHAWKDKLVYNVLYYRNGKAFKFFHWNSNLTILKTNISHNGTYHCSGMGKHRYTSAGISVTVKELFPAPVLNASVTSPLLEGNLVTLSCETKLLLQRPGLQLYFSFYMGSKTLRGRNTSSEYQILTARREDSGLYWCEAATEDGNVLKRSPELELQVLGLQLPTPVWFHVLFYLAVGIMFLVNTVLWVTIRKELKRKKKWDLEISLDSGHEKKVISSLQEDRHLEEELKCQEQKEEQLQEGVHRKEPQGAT

B1: Gm-H22(scFv) (other)
chain: IIGGREVIPHSRPYMASLQRNGSHLCGGVLVHPKWVLTAAHCLAQRMAQLRLVLGLHTLDSPGLTFHIKAAIQHPRYKPVPALENDLALLQLDGKVKPSRTIRPLALPSKRQVVAAGTRCSMAGWGLTHQGGRLSRVLRELDLQVLDTRMCNNSRFWNGSLSPSMVCLAADSKDQAPCKGDSGGPLVCGKGRVLAGVLSFSSRVCTDIFKPPVATAVAPYVSWIRKVTGRSAAEHEGDAAQPAMAQVQLVESGGGVVQPGRSLRLSCSSSGFIFSDNYMYWVRQAPGKGLEWVATISDGGSYTYYPDSVKGRFTISRDNSKNTLFLQMDSLRPEDTGVYFCARGYYRYEGAMDYWGQGTPVTVSSGGGGSGGGGSGGGGSDIQLTQSPSSLSASVGDRVTITCKSSQSVLYSSNQKNYLAWYQQKPGKAPKLLIYWASTRESGVPSRFSGSGSGTDFTFTISSLQPEDIATYYCHQYLSSWTFGQGTKLEIK
With B1 as the binder, how does the binding read?
The binding was “binds”.

Source: patent US20150291693A1 (FRAUNHOFER GESELLSCHAFT ZUR FORDERUNG DER ANGEWANDTEN …, published 2015)
